# Reference: PMC9239266
# Protein sequences, listed by entry. Tags and fused reporters are not part of them.
# UniProt P27482: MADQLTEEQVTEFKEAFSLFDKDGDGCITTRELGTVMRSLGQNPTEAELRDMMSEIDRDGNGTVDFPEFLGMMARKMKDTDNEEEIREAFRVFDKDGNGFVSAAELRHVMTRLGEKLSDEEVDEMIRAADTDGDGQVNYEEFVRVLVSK
# Target: T1, Flag-RFP-CopC (full-length, WT) (Chromobacterium violaceum) (UniProt Q7NWF2)
# T1 sequence: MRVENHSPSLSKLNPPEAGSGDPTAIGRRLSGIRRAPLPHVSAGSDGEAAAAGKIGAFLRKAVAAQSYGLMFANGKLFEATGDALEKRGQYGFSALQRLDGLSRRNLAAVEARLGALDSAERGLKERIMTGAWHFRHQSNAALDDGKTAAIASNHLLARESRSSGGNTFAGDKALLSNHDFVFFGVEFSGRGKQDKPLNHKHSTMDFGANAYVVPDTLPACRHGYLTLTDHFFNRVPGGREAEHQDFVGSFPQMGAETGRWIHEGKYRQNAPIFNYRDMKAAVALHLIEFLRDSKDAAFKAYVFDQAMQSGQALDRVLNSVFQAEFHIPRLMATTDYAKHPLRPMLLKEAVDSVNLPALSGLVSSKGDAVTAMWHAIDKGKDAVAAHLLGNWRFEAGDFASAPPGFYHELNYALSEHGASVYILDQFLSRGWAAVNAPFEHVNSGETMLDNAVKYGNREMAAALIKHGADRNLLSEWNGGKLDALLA
# Assay: affinity purification with mass spectrometry
substance,measurement,value
CaM-like protein 3 (endogenous) (from UniProt P27482 1-149),binding,binds

# These are yes or no findings as the source states them, for the method shown. In cells and extracts the contact can be indirect. A yes stands for co-enrichment or nearness to the bait. Other partners may have been found. Where a sequence is shown, tags or fusion partners need not be part of it.
